These are yes or no findings as the source states them, for the method shown. Some entries that bind do so weakly or less than the wild type.

Amino acid sequences for entries named in this document (tags omitted).
UniProt Q6P9B9: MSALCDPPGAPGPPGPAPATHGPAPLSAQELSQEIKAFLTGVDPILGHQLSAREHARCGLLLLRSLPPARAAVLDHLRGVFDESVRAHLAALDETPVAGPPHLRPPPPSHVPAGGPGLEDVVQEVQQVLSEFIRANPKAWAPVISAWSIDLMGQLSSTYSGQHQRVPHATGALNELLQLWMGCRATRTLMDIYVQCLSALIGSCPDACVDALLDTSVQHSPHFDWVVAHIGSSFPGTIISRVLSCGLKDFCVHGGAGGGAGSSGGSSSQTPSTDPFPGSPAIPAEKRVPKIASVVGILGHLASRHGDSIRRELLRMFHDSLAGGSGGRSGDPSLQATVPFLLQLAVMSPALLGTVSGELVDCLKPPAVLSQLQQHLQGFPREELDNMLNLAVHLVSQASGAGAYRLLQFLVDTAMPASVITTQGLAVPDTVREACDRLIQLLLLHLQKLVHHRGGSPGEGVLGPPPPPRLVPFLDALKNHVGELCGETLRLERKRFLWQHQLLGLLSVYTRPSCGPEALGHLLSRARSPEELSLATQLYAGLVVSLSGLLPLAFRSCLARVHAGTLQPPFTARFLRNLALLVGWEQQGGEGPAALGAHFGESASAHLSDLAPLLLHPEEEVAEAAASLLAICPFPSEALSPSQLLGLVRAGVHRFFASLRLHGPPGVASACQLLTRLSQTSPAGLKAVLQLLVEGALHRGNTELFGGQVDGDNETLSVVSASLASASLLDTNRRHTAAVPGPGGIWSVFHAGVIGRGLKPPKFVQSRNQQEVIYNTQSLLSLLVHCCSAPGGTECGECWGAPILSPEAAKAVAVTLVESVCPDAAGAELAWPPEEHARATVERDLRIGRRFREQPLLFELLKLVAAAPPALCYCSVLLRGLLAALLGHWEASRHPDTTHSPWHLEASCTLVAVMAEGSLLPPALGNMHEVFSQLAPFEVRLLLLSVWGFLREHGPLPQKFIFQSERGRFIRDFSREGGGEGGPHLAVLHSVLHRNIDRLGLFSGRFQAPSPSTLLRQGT
UniProt Q96HW7: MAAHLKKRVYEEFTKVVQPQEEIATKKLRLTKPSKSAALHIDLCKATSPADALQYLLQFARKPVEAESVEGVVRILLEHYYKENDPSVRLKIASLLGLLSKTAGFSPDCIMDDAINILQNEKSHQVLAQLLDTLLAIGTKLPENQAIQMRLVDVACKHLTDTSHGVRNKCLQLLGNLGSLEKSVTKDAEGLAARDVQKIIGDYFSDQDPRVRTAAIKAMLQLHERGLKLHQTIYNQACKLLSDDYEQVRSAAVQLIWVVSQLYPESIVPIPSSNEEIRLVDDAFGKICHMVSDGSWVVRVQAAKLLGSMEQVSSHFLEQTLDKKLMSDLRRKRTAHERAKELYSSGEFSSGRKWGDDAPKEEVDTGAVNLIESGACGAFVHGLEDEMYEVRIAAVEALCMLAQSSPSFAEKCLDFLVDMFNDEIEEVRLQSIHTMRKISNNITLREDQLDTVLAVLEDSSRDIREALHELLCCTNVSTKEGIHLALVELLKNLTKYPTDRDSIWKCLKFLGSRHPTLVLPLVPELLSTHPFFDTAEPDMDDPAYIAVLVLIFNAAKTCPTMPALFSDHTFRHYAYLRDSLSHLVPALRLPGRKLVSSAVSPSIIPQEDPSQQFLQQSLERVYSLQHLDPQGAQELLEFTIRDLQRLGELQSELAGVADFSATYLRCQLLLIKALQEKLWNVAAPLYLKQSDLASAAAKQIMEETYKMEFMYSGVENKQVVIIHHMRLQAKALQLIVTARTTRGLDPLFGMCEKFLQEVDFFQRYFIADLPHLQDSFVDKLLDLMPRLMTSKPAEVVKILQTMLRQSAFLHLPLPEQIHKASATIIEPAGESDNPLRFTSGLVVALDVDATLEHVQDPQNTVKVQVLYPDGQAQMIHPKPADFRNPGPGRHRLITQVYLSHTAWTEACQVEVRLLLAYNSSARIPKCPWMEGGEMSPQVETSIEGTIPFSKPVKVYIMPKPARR
UniProt Q96N11: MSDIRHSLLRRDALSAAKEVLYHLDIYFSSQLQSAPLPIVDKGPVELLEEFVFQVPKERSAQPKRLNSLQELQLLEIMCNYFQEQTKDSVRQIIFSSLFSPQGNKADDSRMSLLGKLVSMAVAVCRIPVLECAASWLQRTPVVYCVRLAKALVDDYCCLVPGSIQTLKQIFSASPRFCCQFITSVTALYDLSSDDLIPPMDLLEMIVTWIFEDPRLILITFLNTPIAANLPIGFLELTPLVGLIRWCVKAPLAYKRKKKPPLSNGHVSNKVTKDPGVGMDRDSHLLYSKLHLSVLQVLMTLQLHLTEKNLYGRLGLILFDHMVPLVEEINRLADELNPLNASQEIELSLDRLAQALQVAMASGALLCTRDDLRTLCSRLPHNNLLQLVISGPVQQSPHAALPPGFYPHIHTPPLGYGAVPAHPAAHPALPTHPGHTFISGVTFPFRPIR
UniProt Q75QN2: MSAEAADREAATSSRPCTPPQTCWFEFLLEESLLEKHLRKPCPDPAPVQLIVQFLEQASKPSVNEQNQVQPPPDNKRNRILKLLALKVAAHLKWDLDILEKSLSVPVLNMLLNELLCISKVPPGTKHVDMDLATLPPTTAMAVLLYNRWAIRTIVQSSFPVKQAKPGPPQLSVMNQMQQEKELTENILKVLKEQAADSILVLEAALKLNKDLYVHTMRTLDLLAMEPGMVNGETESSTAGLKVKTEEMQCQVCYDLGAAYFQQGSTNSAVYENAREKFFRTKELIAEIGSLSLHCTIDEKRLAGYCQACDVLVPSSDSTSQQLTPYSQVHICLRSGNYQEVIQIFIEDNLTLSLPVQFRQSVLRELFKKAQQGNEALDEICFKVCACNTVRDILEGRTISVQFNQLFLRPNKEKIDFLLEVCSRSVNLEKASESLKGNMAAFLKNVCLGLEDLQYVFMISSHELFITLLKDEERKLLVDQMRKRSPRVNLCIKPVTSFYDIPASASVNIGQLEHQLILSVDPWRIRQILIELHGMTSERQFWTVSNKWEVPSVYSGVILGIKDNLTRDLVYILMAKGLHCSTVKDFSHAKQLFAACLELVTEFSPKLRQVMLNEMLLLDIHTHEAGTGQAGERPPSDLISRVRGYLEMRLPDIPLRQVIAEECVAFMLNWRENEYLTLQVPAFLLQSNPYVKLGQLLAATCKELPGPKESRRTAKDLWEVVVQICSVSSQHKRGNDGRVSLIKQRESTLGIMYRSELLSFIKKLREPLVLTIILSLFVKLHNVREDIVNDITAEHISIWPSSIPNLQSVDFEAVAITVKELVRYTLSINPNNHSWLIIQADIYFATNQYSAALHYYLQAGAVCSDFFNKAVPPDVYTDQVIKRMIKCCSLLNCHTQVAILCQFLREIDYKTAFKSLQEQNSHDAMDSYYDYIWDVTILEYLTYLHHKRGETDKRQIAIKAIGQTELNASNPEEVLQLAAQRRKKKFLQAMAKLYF
UniProt Q9NV88: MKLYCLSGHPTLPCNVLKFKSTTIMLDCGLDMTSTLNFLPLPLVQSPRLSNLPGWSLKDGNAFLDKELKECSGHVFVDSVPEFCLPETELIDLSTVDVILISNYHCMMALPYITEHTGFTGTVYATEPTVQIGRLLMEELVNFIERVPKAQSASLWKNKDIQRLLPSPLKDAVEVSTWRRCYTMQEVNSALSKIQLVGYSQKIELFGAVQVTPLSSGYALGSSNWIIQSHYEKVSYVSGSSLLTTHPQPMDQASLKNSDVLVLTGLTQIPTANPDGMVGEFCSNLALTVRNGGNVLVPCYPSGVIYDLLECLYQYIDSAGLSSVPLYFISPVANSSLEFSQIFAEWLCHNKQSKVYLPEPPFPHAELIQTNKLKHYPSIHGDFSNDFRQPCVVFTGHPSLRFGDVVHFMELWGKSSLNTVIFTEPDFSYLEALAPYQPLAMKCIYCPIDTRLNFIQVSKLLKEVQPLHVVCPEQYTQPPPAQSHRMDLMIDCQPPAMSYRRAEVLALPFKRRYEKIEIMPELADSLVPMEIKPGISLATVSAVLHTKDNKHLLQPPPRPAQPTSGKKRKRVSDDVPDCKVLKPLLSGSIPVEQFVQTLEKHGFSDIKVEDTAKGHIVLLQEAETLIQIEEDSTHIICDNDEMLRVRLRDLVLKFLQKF
UniProt Q9NVR2: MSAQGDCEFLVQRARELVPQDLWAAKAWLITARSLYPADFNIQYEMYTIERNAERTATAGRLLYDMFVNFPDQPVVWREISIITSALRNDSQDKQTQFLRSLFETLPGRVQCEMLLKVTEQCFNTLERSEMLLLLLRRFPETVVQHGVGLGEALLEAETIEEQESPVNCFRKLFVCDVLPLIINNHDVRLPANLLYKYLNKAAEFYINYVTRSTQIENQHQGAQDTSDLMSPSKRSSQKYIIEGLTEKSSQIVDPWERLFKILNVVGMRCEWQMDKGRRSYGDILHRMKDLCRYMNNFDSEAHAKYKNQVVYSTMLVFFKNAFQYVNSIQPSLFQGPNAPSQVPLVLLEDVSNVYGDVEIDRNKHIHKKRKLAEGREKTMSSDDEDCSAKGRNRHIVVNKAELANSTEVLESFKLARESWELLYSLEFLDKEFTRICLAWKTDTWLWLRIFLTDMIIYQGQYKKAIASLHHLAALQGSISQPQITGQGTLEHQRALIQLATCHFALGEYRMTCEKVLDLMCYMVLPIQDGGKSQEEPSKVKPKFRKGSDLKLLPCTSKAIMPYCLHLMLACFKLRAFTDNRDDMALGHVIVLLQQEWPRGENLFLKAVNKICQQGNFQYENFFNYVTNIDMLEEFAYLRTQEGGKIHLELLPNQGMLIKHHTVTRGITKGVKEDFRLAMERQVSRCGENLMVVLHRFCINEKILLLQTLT
UniProt Q9NVM9: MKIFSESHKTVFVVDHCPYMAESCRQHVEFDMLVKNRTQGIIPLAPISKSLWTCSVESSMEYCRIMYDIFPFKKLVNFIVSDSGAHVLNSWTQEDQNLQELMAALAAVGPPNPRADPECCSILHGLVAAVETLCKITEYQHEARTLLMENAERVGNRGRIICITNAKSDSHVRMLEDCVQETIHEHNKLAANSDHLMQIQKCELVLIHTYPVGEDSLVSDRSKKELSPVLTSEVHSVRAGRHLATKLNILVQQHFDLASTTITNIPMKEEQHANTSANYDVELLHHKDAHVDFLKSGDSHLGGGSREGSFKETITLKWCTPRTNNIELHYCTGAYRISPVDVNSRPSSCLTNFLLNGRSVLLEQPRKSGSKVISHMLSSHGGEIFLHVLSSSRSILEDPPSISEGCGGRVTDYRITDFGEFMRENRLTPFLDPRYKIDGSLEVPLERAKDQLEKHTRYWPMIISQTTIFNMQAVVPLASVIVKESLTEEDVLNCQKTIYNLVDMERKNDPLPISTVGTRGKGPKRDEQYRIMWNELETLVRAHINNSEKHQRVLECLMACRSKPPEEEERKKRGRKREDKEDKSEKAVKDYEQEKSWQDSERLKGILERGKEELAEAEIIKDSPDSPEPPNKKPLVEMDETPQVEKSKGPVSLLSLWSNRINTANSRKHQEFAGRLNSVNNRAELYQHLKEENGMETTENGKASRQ
UniProt Q96SY0: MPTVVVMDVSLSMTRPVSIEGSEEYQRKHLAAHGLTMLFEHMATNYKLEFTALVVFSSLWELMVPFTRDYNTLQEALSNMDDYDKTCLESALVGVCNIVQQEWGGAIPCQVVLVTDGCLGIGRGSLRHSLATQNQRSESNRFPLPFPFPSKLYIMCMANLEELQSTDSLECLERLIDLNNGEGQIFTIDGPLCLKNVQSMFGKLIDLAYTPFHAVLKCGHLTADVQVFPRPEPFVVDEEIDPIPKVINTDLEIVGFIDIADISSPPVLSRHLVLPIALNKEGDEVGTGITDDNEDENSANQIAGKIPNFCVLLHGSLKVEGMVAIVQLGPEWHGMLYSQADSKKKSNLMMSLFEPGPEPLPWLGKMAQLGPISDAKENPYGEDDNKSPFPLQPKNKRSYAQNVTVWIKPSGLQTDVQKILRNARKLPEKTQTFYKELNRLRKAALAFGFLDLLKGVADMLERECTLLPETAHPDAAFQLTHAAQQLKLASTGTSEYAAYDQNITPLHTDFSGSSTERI

Assay [1] deals with INTS5 (co-expressed in Expi293) (UniProt Q6P9B9). The assay is described as follows: affinity co-purification of co-expressed subunits.
Assay [2] addresses INTS4 (co-expressed in Expi293) (UniProt Q96HW7). The assay is described as follows: affinity co-purification of co-expressed subunits.
Assay [3] deals with Flag-4×Protein A-INTS15 (co-expressed in Expi293) (UniProt Q96N11). The assay is described as follows: affinity co-purification of co-expressed subunits.
In assay [4] the target is purified INTAC auxiliary module (INTS10-13-14-15 module) (UniProt Q96N11). The assay is described as follows: co-sedimentation.
Assay [5] addresses INTAC RNA endonuclease module (INTS4-INTS9-INTS11 module), immobilised on IgG resin (UniProt Q96HW7). The assay is described as follows: pull-down.
The target of assay [6] is INTAC auxiliary module (INTS10-13-14-15 module), immobilised on IgG resin (UniProt Q96N11). The assay is described as follows: pull-down.
Assay [7] deals with INTAC shoulder module (INTS5-INTS8 module), immobilised on IgG resin (UniProt Q6P9B9). The assay is described as follows: pull-down.

For “INTS8 (co-expressed in Expi293) (from UniProt Q75QN2 1-995)”, the binding result in assay [1] is given as “binds”.
As to “INTS9 (co-expressed in Expi293) (from UniProt Q9NV88 1-658)”, the binding entry in assay [2] is “binds”.
Consider “INTS10 (co-expressed in Expi293) (from UniProt Q9NVR2 1-710)”, for which the binding entry in assay [3] is on record as “binds”.
On the same count and under the same terms, next, “INTS13 (co-expressed in Expi293) (from UniProt Q9NVM9 1-706)”: “binds”; “INTS14 (co-expressed in Expi293) (from UniProt Q96SY0 1-518)”: “binds”.
Consider “purified RACK7-KDM5C complex (from UniProt Q9ULU4 1-1186; P41229 1-1560)”, for which the binding result in assay [4] is “binds”; in assay [5], “no binding”; in assay [6], “binds”; in assay [7] it was “no binding”.

(Values after doi:10.1101/2024.02.07.579305.)
